# This is one part of the list.
# The chains behind the UniProt entries cited, without tags or fusion partners. Where a name states a change or a piece, a line headed by the entry shows the natural chain unless it says otherwise.
# UniProt L0R6Q1: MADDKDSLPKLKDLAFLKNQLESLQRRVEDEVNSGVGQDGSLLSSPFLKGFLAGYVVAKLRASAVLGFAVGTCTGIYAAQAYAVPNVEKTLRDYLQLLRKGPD
# UniProt Q9Y2D2: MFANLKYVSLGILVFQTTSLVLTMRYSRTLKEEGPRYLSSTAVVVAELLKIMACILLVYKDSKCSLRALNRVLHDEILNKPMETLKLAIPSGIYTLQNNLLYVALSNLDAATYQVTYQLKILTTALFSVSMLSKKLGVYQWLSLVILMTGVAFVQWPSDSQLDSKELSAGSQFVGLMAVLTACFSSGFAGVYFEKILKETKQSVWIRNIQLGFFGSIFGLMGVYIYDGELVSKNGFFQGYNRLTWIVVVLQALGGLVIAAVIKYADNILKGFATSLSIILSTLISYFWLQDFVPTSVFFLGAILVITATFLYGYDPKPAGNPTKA
# UniProt Q9UPY5: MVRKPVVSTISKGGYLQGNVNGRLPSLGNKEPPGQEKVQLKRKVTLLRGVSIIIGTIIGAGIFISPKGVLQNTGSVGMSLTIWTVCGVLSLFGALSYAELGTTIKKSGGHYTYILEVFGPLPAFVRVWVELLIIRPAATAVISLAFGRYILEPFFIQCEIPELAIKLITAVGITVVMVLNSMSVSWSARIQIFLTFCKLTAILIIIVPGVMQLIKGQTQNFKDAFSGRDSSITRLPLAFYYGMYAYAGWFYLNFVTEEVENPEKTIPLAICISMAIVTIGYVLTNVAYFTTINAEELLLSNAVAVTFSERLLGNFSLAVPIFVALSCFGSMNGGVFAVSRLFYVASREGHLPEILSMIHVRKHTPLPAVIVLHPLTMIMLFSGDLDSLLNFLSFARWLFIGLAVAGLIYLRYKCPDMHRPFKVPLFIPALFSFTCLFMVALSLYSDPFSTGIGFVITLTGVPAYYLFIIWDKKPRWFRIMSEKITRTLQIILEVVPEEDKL
# UniProt Q13485: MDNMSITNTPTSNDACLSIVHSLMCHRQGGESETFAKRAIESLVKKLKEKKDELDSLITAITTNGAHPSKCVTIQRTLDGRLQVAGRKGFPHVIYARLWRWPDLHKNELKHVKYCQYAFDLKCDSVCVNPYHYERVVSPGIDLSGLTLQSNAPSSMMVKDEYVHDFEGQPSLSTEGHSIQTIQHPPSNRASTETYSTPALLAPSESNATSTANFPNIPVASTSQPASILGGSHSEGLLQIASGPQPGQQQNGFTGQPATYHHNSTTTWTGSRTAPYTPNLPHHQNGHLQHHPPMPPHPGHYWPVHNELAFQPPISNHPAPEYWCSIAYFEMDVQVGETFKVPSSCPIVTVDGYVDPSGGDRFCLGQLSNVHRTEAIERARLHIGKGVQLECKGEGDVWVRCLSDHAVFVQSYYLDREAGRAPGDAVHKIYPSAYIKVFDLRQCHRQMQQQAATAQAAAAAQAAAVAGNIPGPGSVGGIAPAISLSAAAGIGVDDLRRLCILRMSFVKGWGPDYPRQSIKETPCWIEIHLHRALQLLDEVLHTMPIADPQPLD
# UniProt Q9ULF5: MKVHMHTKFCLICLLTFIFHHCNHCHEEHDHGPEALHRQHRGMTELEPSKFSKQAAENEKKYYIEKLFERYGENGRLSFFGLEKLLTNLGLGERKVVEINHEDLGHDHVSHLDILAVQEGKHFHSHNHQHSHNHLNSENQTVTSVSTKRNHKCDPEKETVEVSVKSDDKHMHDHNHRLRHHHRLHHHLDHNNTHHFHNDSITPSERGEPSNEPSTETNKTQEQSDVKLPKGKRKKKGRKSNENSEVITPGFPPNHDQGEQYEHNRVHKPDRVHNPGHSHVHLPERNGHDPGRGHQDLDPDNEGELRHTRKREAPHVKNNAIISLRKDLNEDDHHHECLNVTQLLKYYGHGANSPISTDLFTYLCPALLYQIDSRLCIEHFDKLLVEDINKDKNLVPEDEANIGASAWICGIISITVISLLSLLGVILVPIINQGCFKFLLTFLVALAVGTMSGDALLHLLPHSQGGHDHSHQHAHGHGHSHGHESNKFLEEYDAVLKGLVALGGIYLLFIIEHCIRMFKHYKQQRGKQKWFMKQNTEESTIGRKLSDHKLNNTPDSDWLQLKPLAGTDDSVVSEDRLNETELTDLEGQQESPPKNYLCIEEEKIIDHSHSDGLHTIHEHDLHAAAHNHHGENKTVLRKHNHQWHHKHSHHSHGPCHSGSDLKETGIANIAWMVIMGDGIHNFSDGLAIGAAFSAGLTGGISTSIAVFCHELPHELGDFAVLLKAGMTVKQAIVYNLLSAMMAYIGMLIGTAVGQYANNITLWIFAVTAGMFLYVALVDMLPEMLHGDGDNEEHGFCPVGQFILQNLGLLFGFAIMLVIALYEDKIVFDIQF
# UniProt Q969S0: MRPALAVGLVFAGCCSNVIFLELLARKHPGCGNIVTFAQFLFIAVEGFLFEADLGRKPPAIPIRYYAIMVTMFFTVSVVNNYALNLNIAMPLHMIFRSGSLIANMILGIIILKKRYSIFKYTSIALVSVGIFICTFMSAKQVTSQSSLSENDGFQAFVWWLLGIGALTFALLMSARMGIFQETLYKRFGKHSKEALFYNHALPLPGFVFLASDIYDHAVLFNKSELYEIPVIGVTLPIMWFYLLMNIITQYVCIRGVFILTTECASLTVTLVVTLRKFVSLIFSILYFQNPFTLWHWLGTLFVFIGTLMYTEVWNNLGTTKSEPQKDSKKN
# UniProt Q9BQT8: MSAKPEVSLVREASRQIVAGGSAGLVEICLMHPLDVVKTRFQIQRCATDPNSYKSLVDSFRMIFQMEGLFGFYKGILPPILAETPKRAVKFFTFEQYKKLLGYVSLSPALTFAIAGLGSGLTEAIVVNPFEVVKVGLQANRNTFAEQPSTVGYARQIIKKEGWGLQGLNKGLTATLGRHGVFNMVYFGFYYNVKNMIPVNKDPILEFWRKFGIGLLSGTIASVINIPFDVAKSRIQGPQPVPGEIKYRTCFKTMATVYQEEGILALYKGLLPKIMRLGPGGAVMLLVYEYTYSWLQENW
# UniProt Q8WU79: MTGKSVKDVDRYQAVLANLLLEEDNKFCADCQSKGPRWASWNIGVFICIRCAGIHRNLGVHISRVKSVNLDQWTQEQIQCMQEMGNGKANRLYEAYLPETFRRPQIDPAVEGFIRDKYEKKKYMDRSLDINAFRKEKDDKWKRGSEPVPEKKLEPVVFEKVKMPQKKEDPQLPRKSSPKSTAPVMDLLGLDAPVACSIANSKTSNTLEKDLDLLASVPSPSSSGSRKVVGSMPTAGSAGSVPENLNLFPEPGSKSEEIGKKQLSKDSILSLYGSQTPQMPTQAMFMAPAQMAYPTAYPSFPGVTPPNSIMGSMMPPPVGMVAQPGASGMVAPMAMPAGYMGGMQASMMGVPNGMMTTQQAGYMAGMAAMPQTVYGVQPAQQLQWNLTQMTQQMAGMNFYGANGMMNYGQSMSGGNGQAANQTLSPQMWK
# UniProt Q00325: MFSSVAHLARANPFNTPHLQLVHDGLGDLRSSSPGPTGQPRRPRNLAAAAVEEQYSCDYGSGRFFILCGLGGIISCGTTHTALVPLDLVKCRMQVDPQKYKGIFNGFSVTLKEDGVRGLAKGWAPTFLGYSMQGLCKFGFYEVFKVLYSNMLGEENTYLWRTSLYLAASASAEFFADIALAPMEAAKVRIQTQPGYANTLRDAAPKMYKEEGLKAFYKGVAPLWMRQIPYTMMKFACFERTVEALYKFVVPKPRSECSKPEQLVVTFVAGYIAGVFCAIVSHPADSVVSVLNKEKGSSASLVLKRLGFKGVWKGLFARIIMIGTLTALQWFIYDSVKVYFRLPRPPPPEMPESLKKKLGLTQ
# UniProt P52569: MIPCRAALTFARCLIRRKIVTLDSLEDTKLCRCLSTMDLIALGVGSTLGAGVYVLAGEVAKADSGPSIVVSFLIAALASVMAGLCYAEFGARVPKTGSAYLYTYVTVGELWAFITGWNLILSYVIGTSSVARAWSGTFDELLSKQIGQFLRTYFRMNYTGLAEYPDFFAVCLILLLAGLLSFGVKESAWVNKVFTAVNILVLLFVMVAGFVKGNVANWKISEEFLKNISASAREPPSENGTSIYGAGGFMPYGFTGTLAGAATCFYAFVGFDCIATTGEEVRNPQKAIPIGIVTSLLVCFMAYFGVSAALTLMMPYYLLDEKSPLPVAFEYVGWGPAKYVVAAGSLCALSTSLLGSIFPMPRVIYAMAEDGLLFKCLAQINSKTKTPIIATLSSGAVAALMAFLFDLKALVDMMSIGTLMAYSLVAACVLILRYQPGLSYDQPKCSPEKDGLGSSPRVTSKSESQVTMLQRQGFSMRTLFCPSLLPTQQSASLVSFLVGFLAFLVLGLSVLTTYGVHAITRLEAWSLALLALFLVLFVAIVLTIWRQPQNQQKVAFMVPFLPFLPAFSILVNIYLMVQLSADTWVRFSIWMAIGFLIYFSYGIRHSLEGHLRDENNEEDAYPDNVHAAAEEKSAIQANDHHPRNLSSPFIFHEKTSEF
# UniProt O75746: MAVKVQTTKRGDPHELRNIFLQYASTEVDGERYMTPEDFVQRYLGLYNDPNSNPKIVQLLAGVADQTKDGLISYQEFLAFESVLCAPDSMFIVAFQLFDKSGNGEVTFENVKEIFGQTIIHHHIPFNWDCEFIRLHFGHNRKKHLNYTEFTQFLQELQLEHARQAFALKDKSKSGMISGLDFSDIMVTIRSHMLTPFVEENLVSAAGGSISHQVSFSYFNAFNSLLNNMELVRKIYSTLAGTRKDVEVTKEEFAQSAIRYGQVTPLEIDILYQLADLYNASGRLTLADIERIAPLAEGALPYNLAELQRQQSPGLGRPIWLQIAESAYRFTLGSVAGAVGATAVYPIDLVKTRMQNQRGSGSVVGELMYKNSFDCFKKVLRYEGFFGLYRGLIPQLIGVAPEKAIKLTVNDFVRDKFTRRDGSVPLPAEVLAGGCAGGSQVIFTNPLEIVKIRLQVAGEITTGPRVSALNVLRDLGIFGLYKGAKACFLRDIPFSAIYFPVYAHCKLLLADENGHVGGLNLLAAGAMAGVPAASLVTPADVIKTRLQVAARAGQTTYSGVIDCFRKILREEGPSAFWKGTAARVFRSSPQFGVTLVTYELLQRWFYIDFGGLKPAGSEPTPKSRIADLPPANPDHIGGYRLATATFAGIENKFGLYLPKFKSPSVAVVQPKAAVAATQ
# UniProt Q92581: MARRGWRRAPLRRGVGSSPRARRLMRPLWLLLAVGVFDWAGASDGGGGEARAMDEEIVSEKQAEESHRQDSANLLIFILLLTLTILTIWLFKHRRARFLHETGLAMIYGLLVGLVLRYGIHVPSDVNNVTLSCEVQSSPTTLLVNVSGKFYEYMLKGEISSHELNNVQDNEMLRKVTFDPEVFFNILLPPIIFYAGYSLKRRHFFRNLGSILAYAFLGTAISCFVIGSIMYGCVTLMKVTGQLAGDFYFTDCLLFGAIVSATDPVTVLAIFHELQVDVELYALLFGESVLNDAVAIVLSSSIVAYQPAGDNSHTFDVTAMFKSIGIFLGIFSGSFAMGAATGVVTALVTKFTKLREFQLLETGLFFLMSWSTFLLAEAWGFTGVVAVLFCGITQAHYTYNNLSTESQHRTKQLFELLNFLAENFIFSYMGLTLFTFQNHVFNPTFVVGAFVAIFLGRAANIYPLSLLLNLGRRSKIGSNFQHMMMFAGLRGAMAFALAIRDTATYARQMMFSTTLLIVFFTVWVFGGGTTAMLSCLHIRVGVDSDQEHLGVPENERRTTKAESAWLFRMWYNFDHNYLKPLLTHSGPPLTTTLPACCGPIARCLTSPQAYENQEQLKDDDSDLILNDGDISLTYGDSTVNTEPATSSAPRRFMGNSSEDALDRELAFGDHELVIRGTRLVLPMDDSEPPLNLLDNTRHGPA
# UniProt Q9BRY0: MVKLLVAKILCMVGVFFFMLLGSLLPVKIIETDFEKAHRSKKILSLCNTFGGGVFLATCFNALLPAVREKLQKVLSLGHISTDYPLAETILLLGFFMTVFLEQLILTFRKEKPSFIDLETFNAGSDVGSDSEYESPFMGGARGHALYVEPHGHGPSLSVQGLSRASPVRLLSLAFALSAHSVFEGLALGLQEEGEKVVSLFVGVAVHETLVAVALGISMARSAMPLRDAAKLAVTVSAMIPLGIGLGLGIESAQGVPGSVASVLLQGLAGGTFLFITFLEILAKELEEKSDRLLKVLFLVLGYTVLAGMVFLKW
# UniProt Q01650: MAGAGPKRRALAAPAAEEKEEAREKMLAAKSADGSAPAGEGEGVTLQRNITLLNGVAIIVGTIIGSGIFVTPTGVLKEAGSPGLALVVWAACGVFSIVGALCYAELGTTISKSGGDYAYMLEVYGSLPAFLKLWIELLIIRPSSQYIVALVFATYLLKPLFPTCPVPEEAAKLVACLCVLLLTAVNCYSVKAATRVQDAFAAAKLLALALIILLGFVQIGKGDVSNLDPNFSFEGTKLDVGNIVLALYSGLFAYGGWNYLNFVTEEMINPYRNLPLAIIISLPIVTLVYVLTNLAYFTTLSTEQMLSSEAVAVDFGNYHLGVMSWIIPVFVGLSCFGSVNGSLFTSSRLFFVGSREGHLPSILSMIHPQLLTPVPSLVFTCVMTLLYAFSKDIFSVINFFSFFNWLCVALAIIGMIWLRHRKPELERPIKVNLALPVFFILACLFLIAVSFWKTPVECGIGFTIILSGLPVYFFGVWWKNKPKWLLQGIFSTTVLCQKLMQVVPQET
# Compound: O=C(CCCCCCC(=O)Nc1ccccc1)NO [vorinostat]
# Assay: log2 fold change, soluble protein after heating vs DMSO (PISA); higher = thermal stabilisation; K562 lysate, 10 uM; active = over 0.2 and 3.5 SD of the protein, either way, in both replicates (recomputed)
# Outline: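 K562 pellets were dounce-homogenised in PBS pH 7.4 with 1 mM MgCl2, and the crude extract at 1 mg/mL protein was treated with 10 μM compound for 30 min. Aliquots were heated for 3 min across 48°C-58°C, pooled, and brought to 0.5% NP-40 at 4°C; soluble protein was the supernatant after 21,000xg for 90 min. Soluble protein was quantified by TMTpro 16plex LC-MS/MS with channel sums equalised, and reported as log2 fold change in thermal stability against DMSO controls, with values from duplicates.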
row,Target,log2 fold change
1,SLC25A22 (UniProt Q9H936),inactive: -0.032
2,SLC25A10 isoform 2 (UniProt Q9UBX3),inactive: -0.069
3,SLC30A10 (UniProt Q6XR72),inactive: 0.024
4,SLC35A4 (UniProt L0R6Q1),inactive: 0.113
5,SLC27A4 (UniProt Q6P1M0),active: -0.257
6,SLC35A3 isoform 2 (UniProt Q9Y2D2),inactive: 0.091
7,SLC9A3R1 (UniProt O14745),inactive: 0.108
8,SLC4A7 isoform 7 (UniProt Q9Y6M7),inactive: 0.186
9,SLC7A11 (UniProt Q9UPY5),inactive: 0.012
10,SLC35B2 (UniProt Q8TB61),inactive: 0.063
11,SMAD4 (UniProt Q13485),inactive: 0.015
12,SLC43A3 isoform 2 (UniProt Q8NBI5),inactive: 0.02
13,SLC25A15 (UniProt Q9Y619),inactive: 0.044
14,SLC39A10 (UniProt Q9ULF5),inactive: -0.007
15,SMAP (UniProt O00193),inactive: 0.046
16,SLC35B1 isoform 2 (UniProt P78383),inactive: 0.068
17,SMAD5 (UniProt Q99717),inactive: 0.002
18,SLC35B4 (UniProt Q969S0),inactive: 0.07
19,SLC25A21 (UniProt Q9BQT8),inactive: 0.084

row,Target,log2 fold change
1,SMAP2 (UniProt Q8WU79),inactive: -0.032
2,SLC6A6 (UniProt P31641),inactive: 0.077
3,SLC25A32 (UniProt Q9H2D1),inactive: 0.23
4,SLC26A2 (UniProt P50443),inactive: 0.197
5,SLC2A3 (UniProt P11169),inactive: 0.058
6,SLC25A37 (UniProt Q9NYZ2),inactive: 0.099
7,SLC25A3 isoform 2 (UniProt Q00325),inactive: 0.062
8,SLC7A2 isoform 3 (UniProt P52569),inactive: 0.019
9,SLC25A12 (UniProt O75746),inactive: 0.036
10,SLC27A2 (UniProt O14975),inactive: -0.237
11,SLC9A6 isoform 2 (UniProt Q92581),inactive: 0.139
12,SLC39A3 (UniProt Q9BRY0),inactive: 0.062
13,SLC25A5 (UniProt P05141),inactive: -0.07
14,SLC38A2 (UniProt Q96QD8),inactive: 0.048
15,SLC35C1 (UniProt Q96A29),inactive: -0.305
16,SLC25A51 (UniProt Q9H1U9),inactive: -0.023
17,SLC25A17 (UniProt O43808),inactive: 0.015
18,SLC4A2 (UniProt P04920),inactive: -0.03
19,SLC7A5 (UniProt Q01650),inactive: 0.109

# Source: the supplement of paper PMC10849652
